Reference: US10555957B2, “Methods and compositions for enriching DHA levels in the brain” (The Board of Trustees of the University of Illinois, a body …, priority 2017, dated 2020)
At least one structure is not confirmed: it was looked up by name or label, or the drawing left a doubt.

What was measured:
[1] = Feeding free EPA or LPC-EPA for 15 days: omega 3 fatty acids and arachidonic acid in tissues; format: in vivo, Mice; conditions: 1 mg EPA/day for 15 days
Description: Mice were fed oral preparations of free EPA or LPC-EPA at about 1 mg/kg per day for 15 days. The compounds were dispersed in corn oil (80 μl) and fed daily by gavge.

[2] = system: BDNF; test: BDNF levels in the brain after feeding free EPA or LPC-EPA; format: in vivo, Mice; conditions: 1 mg EPA/day for 15 days
Description: The compounds were dispersed in corn oil (80 μl) and fed daily by gavge. Results are shown in e.g. […]. […] See e.g. FIGS. 23A-23C.

## CC/C=C\C/C=C\C/C=C\C/C=C\C/C=C\CCCC(=O)O [free EPA, eicosapentaenoic acid]
[1]
  concentration of arachidonic acid in all tissues: decreased
[2]
  BDNF levels in the brain: not
